Measurements as given in the supplement of paper PMC10849652.
This is one part of the list.

Amino acid sequences for entries named in this document (tags omitted). A change or cut given only in a name is not applied to a line headed by its entry.
UniProt Q9Y305: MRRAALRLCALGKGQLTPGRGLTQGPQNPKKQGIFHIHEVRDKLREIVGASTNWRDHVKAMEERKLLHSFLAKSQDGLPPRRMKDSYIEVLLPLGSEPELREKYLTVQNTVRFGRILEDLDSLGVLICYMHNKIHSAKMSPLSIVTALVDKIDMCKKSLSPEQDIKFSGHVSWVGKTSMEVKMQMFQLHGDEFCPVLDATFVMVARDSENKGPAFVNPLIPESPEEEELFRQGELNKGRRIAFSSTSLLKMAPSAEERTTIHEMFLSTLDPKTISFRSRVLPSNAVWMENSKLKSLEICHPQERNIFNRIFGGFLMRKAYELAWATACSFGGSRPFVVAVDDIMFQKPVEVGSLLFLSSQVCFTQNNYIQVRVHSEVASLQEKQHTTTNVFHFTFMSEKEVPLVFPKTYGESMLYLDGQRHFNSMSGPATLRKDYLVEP
UniProt P12814, whole entry, looked up: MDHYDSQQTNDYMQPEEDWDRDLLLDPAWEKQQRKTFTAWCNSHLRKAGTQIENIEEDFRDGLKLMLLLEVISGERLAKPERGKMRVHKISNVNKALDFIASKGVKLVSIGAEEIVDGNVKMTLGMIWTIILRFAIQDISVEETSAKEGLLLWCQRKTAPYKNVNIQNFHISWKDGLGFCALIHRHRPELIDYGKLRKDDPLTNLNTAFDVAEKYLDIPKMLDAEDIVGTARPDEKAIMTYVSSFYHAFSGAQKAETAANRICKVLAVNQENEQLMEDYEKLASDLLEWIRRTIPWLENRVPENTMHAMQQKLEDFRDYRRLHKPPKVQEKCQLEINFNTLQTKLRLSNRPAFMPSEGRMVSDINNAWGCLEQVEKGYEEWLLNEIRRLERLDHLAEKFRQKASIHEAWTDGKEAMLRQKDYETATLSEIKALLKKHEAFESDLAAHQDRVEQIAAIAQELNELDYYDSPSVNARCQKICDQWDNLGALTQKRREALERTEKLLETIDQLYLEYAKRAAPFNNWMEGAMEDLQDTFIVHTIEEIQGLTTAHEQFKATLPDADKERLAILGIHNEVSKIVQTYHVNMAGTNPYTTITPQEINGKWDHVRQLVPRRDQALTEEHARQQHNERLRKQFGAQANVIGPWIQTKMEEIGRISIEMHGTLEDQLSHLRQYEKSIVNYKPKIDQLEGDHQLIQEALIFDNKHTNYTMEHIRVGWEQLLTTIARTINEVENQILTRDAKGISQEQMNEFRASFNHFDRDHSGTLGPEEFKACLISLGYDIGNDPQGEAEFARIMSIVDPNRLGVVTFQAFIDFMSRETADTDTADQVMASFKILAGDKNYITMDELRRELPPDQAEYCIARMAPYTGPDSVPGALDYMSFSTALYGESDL
UniProt P33527: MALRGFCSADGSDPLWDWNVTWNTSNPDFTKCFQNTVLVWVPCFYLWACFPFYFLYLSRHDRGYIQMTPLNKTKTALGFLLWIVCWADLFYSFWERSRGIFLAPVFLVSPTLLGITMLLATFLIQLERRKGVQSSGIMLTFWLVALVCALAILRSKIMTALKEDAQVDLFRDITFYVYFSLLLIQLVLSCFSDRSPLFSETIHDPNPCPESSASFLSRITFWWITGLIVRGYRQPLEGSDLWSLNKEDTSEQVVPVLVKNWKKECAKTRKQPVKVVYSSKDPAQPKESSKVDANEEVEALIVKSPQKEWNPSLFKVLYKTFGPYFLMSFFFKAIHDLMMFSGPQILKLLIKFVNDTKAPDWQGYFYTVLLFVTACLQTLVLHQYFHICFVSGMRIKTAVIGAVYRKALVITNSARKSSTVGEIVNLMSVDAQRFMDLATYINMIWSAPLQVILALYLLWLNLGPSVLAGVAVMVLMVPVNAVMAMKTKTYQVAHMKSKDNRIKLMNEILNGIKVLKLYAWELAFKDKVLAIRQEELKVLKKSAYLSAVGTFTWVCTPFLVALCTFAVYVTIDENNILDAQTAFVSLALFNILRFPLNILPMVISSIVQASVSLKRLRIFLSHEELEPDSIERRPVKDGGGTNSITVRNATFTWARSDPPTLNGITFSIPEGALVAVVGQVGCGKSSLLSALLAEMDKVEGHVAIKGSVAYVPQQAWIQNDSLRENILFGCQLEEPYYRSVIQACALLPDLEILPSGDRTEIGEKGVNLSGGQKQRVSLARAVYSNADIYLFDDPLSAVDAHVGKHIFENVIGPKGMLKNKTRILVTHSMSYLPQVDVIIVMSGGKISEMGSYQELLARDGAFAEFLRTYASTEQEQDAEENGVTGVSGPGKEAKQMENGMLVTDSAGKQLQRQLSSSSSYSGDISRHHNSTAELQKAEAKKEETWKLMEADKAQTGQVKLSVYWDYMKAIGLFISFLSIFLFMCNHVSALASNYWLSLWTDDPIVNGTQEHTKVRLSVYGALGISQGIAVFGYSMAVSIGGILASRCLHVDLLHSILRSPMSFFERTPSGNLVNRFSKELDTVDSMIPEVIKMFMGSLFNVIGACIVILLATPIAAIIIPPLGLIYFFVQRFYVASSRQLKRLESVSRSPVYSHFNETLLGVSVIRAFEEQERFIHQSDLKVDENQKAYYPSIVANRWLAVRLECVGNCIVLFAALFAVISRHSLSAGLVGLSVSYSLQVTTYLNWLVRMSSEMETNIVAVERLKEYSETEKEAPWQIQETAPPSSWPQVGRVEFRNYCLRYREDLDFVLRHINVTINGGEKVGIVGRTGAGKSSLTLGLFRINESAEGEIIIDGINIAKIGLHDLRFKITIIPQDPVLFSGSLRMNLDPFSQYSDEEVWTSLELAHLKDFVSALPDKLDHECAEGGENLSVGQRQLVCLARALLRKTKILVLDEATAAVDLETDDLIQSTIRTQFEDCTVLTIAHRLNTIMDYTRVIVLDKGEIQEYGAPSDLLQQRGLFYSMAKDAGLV
UniProt Q15057: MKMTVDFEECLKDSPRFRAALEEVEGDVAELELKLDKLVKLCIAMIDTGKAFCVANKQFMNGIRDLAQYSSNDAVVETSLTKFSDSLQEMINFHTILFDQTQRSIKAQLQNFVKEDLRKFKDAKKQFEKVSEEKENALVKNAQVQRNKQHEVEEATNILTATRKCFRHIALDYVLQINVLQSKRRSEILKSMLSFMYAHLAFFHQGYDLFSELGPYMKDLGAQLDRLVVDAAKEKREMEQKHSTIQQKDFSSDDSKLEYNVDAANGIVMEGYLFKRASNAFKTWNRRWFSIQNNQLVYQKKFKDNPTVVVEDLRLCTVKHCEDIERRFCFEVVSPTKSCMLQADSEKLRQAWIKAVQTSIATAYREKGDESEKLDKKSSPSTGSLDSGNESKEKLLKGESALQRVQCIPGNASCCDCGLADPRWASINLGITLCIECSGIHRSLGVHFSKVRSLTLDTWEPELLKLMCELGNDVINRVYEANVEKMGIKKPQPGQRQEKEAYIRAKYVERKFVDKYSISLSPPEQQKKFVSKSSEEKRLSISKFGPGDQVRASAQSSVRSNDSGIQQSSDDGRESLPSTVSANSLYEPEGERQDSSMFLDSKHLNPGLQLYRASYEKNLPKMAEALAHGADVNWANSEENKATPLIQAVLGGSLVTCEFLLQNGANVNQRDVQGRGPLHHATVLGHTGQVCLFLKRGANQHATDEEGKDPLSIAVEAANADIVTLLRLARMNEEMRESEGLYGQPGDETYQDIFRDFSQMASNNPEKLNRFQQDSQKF
UniProt P01023, whole entry, looked up: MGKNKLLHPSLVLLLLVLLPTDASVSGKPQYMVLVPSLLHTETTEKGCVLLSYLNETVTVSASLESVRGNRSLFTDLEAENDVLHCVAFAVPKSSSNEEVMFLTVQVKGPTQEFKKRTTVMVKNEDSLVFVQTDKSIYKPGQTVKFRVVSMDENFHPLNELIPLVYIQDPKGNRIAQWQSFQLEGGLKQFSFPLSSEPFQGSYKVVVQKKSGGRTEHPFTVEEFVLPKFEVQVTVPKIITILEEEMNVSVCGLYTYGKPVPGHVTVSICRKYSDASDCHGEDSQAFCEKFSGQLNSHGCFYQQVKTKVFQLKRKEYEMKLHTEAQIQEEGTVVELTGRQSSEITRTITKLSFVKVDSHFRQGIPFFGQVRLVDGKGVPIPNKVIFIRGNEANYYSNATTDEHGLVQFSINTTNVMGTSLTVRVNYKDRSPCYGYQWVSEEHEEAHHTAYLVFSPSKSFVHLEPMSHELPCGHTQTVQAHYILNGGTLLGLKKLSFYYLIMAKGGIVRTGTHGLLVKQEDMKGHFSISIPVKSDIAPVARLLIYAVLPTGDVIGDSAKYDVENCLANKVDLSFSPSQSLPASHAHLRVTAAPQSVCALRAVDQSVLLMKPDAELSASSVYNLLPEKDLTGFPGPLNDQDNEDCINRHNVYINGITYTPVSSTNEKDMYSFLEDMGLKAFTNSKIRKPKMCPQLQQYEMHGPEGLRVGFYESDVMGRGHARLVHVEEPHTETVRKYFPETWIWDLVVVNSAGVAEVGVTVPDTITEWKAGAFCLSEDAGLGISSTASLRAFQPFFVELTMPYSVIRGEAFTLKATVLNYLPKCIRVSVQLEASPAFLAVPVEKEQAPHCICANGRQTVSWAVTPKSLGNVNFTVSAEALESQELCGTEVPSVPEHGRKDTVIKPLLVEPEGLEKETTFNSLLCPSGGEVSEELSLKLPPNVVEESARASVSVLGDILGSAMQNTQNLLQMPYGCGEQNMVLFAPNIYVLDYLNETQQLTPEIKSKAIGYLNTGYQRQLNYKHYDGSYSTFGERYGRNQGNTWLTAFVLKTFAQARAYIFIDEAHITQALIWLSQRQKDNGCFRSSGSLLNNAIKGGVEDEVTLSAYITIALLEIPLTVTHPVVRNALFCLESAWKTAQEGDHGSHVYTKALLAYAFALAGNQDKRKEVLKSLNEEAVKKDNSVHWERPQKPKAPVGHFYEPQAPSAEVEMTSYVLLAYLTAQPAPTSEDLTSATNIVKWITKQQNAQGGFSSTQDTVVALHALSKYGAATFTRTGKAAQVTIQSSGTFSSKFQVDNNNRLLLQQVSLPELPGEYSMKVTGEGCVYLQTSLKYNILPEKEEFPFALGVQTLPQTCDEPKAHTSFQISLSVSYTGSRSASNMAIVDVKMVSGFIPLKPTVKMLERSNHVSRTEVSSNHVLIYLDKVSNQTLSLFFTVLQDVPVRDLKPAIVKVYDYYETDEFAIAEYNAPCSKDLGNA
UniProt Q9NZ32, whole entry, looked up: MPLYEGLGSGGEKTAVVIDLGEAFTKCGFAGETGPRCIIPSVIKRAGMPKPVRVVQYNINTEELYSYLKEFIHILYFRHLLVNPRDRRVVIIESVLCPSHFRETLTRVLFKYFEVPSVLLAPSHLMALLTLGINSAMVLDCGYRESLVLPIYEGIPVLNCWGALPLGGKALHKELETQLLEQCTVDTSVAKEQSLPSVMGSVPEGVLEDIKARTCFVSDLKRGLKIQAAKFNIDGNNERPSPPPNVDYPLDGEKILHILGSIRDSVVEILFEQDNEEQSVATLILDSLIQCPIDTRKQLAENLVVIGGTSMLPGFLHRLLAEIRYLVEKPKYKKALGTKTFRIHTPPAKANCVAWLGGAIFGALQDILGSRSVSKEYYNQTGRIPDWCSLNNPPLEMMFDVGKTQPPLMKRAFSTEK
UniProt O60488: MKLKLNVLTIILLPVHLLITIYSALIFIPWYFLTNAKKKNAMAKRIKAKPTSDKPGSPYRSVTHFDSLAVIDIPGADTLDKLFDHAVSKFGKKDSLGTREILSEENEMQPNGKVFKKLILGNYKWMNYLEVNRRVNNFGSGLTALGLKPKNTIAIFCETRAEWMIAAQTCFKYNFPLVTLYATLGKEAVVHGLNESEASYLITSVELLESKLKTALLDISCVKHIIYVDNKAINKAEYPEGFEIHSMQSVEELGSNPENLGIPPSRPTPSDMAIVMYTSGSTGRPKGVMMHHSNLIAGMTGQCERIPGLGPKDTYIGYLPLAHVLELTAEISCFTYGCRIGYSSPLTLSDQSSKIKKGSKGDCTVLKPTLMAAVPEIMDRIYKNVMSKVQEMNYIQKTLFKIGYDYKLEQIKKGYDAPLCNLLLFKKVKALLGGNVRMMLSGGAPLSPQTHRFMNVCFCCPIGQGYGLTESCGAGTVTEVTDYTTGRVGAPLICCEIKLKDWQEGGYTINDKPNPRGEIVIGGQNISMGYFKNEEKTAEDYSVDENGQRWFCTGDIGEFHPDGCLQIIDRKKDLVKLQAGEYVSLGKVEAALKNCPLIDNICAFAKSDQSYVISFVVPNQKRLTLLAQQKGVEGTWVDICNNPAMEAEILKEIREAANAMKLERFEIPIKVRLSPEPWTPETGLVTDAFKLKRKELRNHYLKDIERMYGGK

Tests used:
Experiment in all cases: log2 fold change, soluble protein after heating vs DMSO (PISA); higher = thermal stabilisation; K562 cells, 10 uM, 30 min; active = over 0.2 and 3.5 SD of the protein, either way, in both replicates (recomputed)
[1] = compound: COC1=CC=C(C=C1)CN2C=CC3=C2C=C(C=C3)C(=O)NO
Method in brief: (§1)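 Soluble protein was quantified by TMTpro 16plex LC-MS/MS after channel sums were equalised. It was obtained as the supernatant after 21,000xg for 90 min from pooled aliquots of K562 cells (2×10^6 cells/mL, 10 μM compound, 30 min) heated for 3 min across 48°C-58°C and extracted in PBS with 0.5% NP-40 at 4°C. Thermal stability values are relative to control samples and come from duplicates. They are given as log2 fold changes.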

filanesib = compound: CON(C)C(=O)N1N=C(c2cc(F)ccc2F)S[C@@]1(CCCN)c1ccccc1 [filanesib]
Method in brief: as §1

zotarolimus = compound: CO[C@H]1C[C@@H]2CC[C@@H](C)[C@@](O)(O2)C(=O)C(=O)N2CCCC[C@H]2C(=O)O[C@H]([C@H](C)C[C@@H]2CC[C@H](n3cnnn3)[C@H](OC)C2)CC(=O)[C@H](C)/C=C(\C)[C@@H](O)[C@@H](OC)C(=O)[C@H](C)C[C@H](C)/C=C/C=C/C=C/1C [zotarolimus]
Method in brief: as §1

idasanutlin = compound: COc1cc(C(=O)O)ccc1NC(=O)[C@@H]1N[C@@H](CC(C)(C)C)[C@](C#N)(c2ccc(Cl)cc2F)[C@H]1c1cccc(Cl)c1F [idasanutlin]
Method in brief: as §1

alisertib = compound: COc1cc(Nc2ncc3c(n2)-c2ccc(Cl)cc2C(c2c(F)cccc2OC)=NC3)ccc1C(=O)O [alisertib]
Method in brief: as §1

[2] = compound: COc1cc2nc(-c3cc(F)ccc3O)nc(N[C@@H]3CNC[C@H]3C(C)(C)O)c2cc1OC
Method in brief: as §1

gefitinib = compound: COc1cc2ncnc(Nc3ccc(F)c(Cl)c3)c2cc1OCCCN1CCOCC1 [gefitinib]
Method in brief: as §1

[3] = compound: COc1cccc2cc(-c3nc([C@H]4CC[C@H](C(=O)O)CC4)n4ncnc(N)c34)[nH]c12
Method in brief: as §1

lapatinib = compound: CS(=O)(=O)CCNCc1ccc(-c2ccc3ncnc(Nc4ccc(OCc5cccc(F)c5)c(Cl)c4)c3c2)o1 [lapatinib]
Method in brief: as §1

pictilisib = compound: CS(=O)(=O)N1CCN(Cc2cc3nc(-c4cccc5[nH]ncc45)nc(N4CCOCC4)c3s2)CC1 [pictilisib]
Method in brief: as §1

| Target | log2 fold change [1] | log2 fold change (filanesib) | log2 fold change (zotarolimus) | log2 fold change (idasanutlin) | log2 fold change (alisertib) | log2 fold change [2] | log2 fold change (gefitinib) | log2 fold change [3] | log2 fold change (lapatinib) | log2 fold change (pictilisib) |
| --- | --- | --- | --- | --- | --- | --- | --- | --- | --- | --- |
| ADAM10 (UniProt O14672) | inactive: 0.028 | inactive: 0.041 | inactive: 0.017 | inactive: 0.04 | inactive: -0.073 | inactive: 0.018 | inactive: -0.012 | inactive: -0.003 | inactive: -0.045 | inactive: 0.019 |
| AAMP (UniProt Q13685) | inactive: -0.031 | inactive: 0.003 | inactive: 0.029 | inactive: -0.052 | inactive: -0.049 | inactive: -0.027 | inactive: 0.026 | inactive: 0.033 | inactive: 0.024 | inactive: -0.002 |
| ACTL6A (UniProt O96019) | inactive: 0.051 | inactive: -0.026 | inactive: 0.001 | inactive: -0.048 | inactive: -0.014 | inactive: 0.025 | inactive: 0.007 | inactive: 0.023 | inactive: -0.003 | inactive: 0.046 |
| ACOT9 isoform 4 (UniProt Q9Y305) | inactive: 0.009 | inactive: 0.134 | inactive: 0.012 | inactive: 0.057 | inactive: -0.11 | inactive: -0.095 | inactive: 0.006 | inactive: -0.044 | inactive: 0.056 | inactive: -0.027 |
| ACSF3 (UniProt Q4G176) | inactive: -0.099 | inactive: -0.045 | inactive: -0.01 | inactive: 0.051 | inactive: 0.001 | inactive: -0.053 | inactive: -0.096 | inactive: 0.054 | inactive: -0.004 | inactive: 0.064 |
| ACTN1 (UniProt P12814) | inactive: 0.046 | inactive: 0.003 | inactive: 0.018 | inactive: -0.045 | inactive: -0.031 | inactive: 0.012 | inactive: -0.011 | inactive: 0.032 | inactive: 0.001 | inactive: 0.034 |
| ABCC1 (UniProt P33527) | inactive: -0.036 | inactive: 0.085 | inactive: 0.008 | inactive: -0.053 | inactive: -0.035 | inactive: 0.067 | inactive: 0.021 | inactive: 0.054 | inactive: 0.054 | inactive: 0.053 |
| AAR2 (UniProt Q9Y312) | inactive: 0.022 | inactive: 0.111 | inactive: 0.042 | inactive: 0.002 | inactive: -0.129 | inactive: 0.104 | inactive: 0.075 | inactive: 0.058 | inactive: -0.005 | inactive: -0.082 |
| ACAP2 (UniProt Q15057) | inactive: -0.001 | inactive: 0.119 | inactive: 0.01 | inactive: -0.047 | inactive: 0.011 | active: 0.283 | inactive: 0.02 | inactive: 0.014 | inactive: 0.015 | inactive: -0.059 |
| A2M (UniProt P01023) | inactive: -0.073 | inactive: 0.189 | inactive: -0.184 | inactive: 0.083 | inactive: -0.055 | inactive: -0.188 | inactive: -0.159 | inactive: 0.374 | inactive: -0.021 | inactive: 0.069 |
| ACTR10 (UniProt Q9NZ32) | inactive: 0.052 | inactive: 0 | inactive: -0.085 | inactive: -0.045 | inactive: -0.07 | inactive: 0.034 | inactive: -0.001 | inactive: 0.008 | inactive: -0.003 | inactive: -0.057 |
| ACSL4 (UniProt O60488) | inactive: 0.09 | inactive: -0.071 | inactive: -0.058 | inactive: -0.113 | inactive: -0.006 | inactive: -0.105 | inactive: 0.075 | inactive: -0.053 | inactive: 0.052 | inactive: 0.052 |
| ABCC5 (UniProt O15440) | inactive: -0.026 | inactive: 0.001 | inactive: -0.02 | inactive: 0.017 | inactive: -0.026 | inactive: 0.053 | inactive: 0.089 | inactive: -0.05 | inactive: 0 | inactive: -0.037 |
| ABCB6 (UniProt Q9NP58) | inactive: -0.007 | inactive: -0.077 | inactive: 0.055 | inactive: -0.137 | inactive: -0.069 | inactive: 0.058 | inactive: -0.011 | inactive: 0.024 | inactive: -0.005 | inactive: 0.06 |
| ACADS (UniProt P16219) | inactive: 0.063 | inactive: -0.065 | inactive: -0.028 | inactive: -0.115 | inactive: -0.074 | inactive: 0.041 | inactive: -0.022 | inactive: 0.045 | inactive: -0.021 | inactive: 0.104 |

Pulled one by one from the entries so far (2):

| Target | log2 fold change [1] | log2 fold change (filanesib) | log2 fold change (zotarolimus) | log2 fold change (idasanutlin) | log2 fold change (alisertib) | log2 fold change [2] | log2 fold change (gefitinib) | log2 fold change [3] | log2 fold change (lapatinib) | log2 fold change (pictilisib) |
| --- | --- | --- | --- | --- | --- | --- | --- | --- | --- | --- |
| AAMP (UniProt Q13685) | inactive: -0.031 | inactive: 0.003 | inactive: 0.029 | inactive: -0.052 | inactive: -0.049 | inactive: -0.027 | inactive: 0.026 | inactive: 0.033 | inactive: 0.024 | inactive: -0.002 |
| ACSL4 (UniProt O60488) | inactive: 0.09 | inactive: -0.071 | inactive: -0.058 | inactive: -0.113 | inactive: -0.006 | inactive: -0.105 | inactive: 0.075 | inactive: -0.053 | inactive: 0.052 | inactive: 0.052 |
